From US9901615B2, “Method for treatment of gastric ulcers” (priority 2015, dated 2018)
Like-named read-outs stand apart in the source and are kept apart here. Not every detail of the peptide structures is certain; ends, links or a residue may be inferred. Marks after values point to notes of the source that are not given here. Where no end group is shown, it is not given here.

Experiments:
H. pylori surface charge = assay: Zeta potential, H. pylori surface charge (TP4); assay type: cell-based, Helicobacter pylori; settings: TP4 at the MIC
H. pylori ATCC 43629 [1] = assay type: cell-based, Helicobacter pylori; settings: H. pylori 43629; NE: No effect
Description: (§1) H. pylori cells undergoing exponential growth were suspended in sterile phosphate-buffered saline (PBS), and adjusted to 0.05 OD using BHI broth; the inoculum was dispensed onto a microtitre plate. Peptide TP4 was prepared at various concentrations (0.04 to 50 μg mL-1) using PBS. Antibiotic resistant clinical isolate CI-HC-028 and three reference strains were used for susceptibility testing. The MIC was defined as the lowest concentration of the drug at which there was no visible growth. For quality control and comparative analyses, the susceptibility of all four H. pylori strains to the antibiotics amoxicillin, clarithromycin, and metronidazole were also examined.

H. pylori ATCC 700392 [2] = assay type: cell-based, Helicobacter pylori; settings: H. pylori 700392; NE: No effect
Description: as §1

H. pylori ATCC 43504 [3] = assay type: cell-based, Helicobacter pylori; settings: H. pylori 43504; NE: No effect
Description: as §1

resistant H. pylori = assay: Synergy of TP4 with antibiotics (dose-OD fall kinetics); assay type: cell-based, Helicobacter pylori
H. pylori = assay: Transmission electron microscopy (TP4); assay type: cell-based, Helicobacter pylori; settings: 2 h post exposure
Description: Transmission electron microscopy (TEM) was used to examine the TP4 mechanism of action on H. pylori, overall cell morphology, TP4 translocation into H. pylori, and interaction of TP4 with internal targets. H. pylori overnight cultures from BHI-blood agar plates were collected, and 0.1 OD inocula were incubated with TP4, Amoxicillin, and/or PBS (PBS only: negative control). […] The cells were then fixed and processed for TEM using previously described methods, with some modifications. Briefly, cells were dehydrated in a graduated series of ethanol, followed by resin polymerization at 65° C. for 3 days. An EM ultramicrotome was used to slice thin sections of 70- to 80-nm thickness from the polymerized blocks, which were then loaded on 400-mesh copper grids. The sections were post stained with 2% uranyl acetate for 15 min and then lead citrate for 5 min, before being mounted for observation using an FEI Tecnai G2 F20 S-TWIN transmission electron microscope (FEI Company, Hillsboro, Oreg.) operating at 80 keV. […] Each grid was scrutinized with the same settings. Images were recorded with a 4MP SPOT Insight charge-coupled-device (CCD) camera.

[4] = tested on: cytokine and FoxP3 mRNA in gastric tissue; assay: Gastric cytokines and T cell marker gene expression (TP4 study); assay type: in vivo, C3H/HeN mice; settings: infected mice
H. pylori infection [5] = assay: Monotherapeutic efficacy of TP4 against H. pylori infection in a mouse model (colonization); assay type: in vivo, C3H/HeN mice
[6] = tested on: splenic T cell subsets (Treg, Th17); assay: Flow cytometry of splenic T cell subsets (TP4 study); assay type: in vivo, C3H/HeN mice; settings: infected mice
[7] = tested on: H. pylori colonization and gastric inflammation; assay: Histopathology examination (TP4 study); assay type: in vivo, C3H/HeN mice; settings: infected mice
[8] = tested on: H. pylori clinical isolate CI-HC-028; assay: Anti-H. pylori assessment in vitro (MIC), Example 2; assay type: cell-based, Helicobacter pylori; settings: NE: No effect
Description: as §1

H. pylori ATCC 700392 [9] = assay: In vitro H. pylori growth inhibition assay (MIC, micro dilution), Example 1; assay type: cell-based, Helicobacter pylori; settings: NE: No effect
H. pylori ATCC 43504 [10] = assay: as above; assay type: cell-based, Helicobacter pylori; settings: NE: No effect
H. pylori infection [11] = assay: In vivo efficacy of Epi-1 in mouse model of H. pylori infection (bacterial burden, immunofluorescence); set-up: species or system C3H/HeN mice
H. pylori ATCC 43629 [12] = assay: In vitro H. pylori growth inhibition assay (MIC, micro dilution), Example 1; assay type: cell-based, Helicobacter pylori; settings: NE: No effect
H. pylori (ATCC 43504) = assay: Time-kill kinetics of Epi-1; assay type: cell-based, Helicobacter pylori
[13] = tested on: gastric inflammation in H. pylori-infected mice; assay: Histological analysis of gastric tissue sections (Epi-1 study); assay type: in vivo, C3H/HeN mice; settings: infected mice after two weeks treatment

**Q.** Which zeta potential (H. pylori surface charge; H. pylori blood agar inoculum) does the source give for “FIHHIIGGLFSAGKAIHRLIRRRRR [TP4, Nile tilapia piscidin 4]” here?
**A.** +13.03 mV

**Q.** What about the zeta potential (H. pylori surface charge; H. pylori broth inoculum) of the same substance?
**A.** −6.18 mV

**Q.** And the MIC (H. pylori ATCC 43629 [1])?
**A.** 1.5-3* μg mL-1

**Q.** And the MIC (H. pylori ATCC 700392 [2])?
**A.** 1.5-3* μg mL-1

**Q.** And the MIC (H. pylori ATCC 43504 [3])?
**A.** 1.5-3* μg mL-1

**Q.** What about the “reduction of the MIC of AMOX in combination with TP4” value (resistant H. pylori) of the same substance?
**A.** one-fourth

**Q.** What about the “reduction of the MIC of CLRN in combination with TP4” value (resistant H. pylori) of the same substance?
**A.** one-half

**Q.** What about the “reduction of the MIC of METZ in combination with TP4” value (resistant H. pylori) of the same substance?
**A.** one-half

**Q.** What about the “ultrastructure of H. pylori cells (TEM)” value (H. pylori) of the same substance?
**A.** substantial disruption of bacterial cell membranes

**Q.** What about the “gastric mRNA of TNF-α, IL-6, IL18, IL-10, IL-17, Il-23, TGF-β and FOXp3” value [4] of the same substance?
**A.** down-regulation of all of these genes, with the exceptions of Il-23 and TGF-β

**Q.** What about the “H. pylori in stomach” value (H. pylori infection [5]; infected C3H/HeN mice, two weeks treatment, for statistics TP4 set as <10 CFU) of the same substance?
**A.** not detected

**Q.** And the “H. pylori present in gastric tissue (urease test)” value (H. pylori infection [5]; infected mice after treatment)?
**A.** not

**Q.** What about the “Th17 cells in splenic T subsets” value [6] of the same substance?
**A.** moderately affects

**Q.** And the “Treg cells in splenic T subsets” value [6]?
**A.** strong inhibition

**Q.** What about the “H. pylori burden in gastric sections (modified Giemsa)” value [7] of the same substance?
**A.** significantly cleared the H. pylori burden

**Q.** And the “gastric inflammation (HE stain)” value [7]?
**A.** significantly reduced H. pylori-induced inflammation

**Q.** And the MIC [8]?
**A.** 1.5-3* μg mL-1

**Q.** How did the MIC (H. pylori ATCC 700392 [9]) turn out when “GFIFHIIKGLFHAGKMIHGLV-NH2 [Epi-1, Epinecidin-1]” was run?
**A.** 8-12* μg/mL

**Q.** And the MIC (H. pylori ATCC 43504 [10])?
**A.** 8-12* μg/mL

**Q.** What about the “clearance of H. pylori” value (H. pylori infection [11]; infected C3H/HeN mice, 250 μg daily for two weeks) of the same substance?
**A.** 100%

**Q.** What about the “immunofluorescence detection of H. pylori in gastric tissue sections” value (H. pylori infection [11]; infected mice after two weeks treatment) of the same substance?
**A.** fluorescence was not observed

**Q.** What about the MIC (H. pylori ATCC 43629 [12]) of the same substance?
**A.** 8-12* μg/mL

**Q.** What about the “bacterial counts over time” value (H. pylori (ATCC 43504); 0.5×MIC) of the same substance?
**A.** initially decreased, but increased exponentially after Ghr post-exposure

**Q.** What about the “decrease of H. pylori” value (H. pylori (ATCC 43504); 1×MIC, 12 hr postexposure) of the same substance?
**A.** 90%

**Q.** And the “decrease of H. pylori” value (H. pylori (ATCC 43504); 2×MIC, 1 hr postexposure)?
**A.** 90%

**Q.** And the “minimum bactericidal concentration (MBC)” value (H. pylori (ATCC 43504); antibiotic-sensitive and -resistant strains of H. pylori)?
**A.** 12.5 to 25 µg

**Q.** What about the “gastric inflammation and immune cell infiltration (HE, Giemsa)” value [13] of the same substance?
**A.** significantly reduced both inflammation and immune cell infiltration
